{"source": "PubChem BioAssay AID504774, Drosophila RNAi Screening Center | 2011", "purpose": "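Fly genes whose loss alters survival after alkylation damage to DNA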 (primary screen)", "cell system": "Drosophila Kc167 cells", "reagent": "long dsRNA against Drosophila genes, about 0.25 µg dsRNA per well", "timing": "about 6 days: 3 days knock-down, then 3 days with or without MMS", "conditions": "methyl methanesulphonate 0.004% (w/v) for 3 days after knock-down", "detection": "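Viability in wells given MMS, read as ATP luminescence, normalised by quantiles plate by plate and averaged across replicates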", "reading the numbers": "mean viability with MMS and viability with MMS: higher = more surviving cells after MMS", "note": "In all, the deposit lists about 23,000 reagents; shown is a random part of those that have a named target and a result. 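Values are quantile-normalised luminescence on an arbitrary scale; higher means more cells surviving MMS.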 Not all columns of the deposit are shown."}
{"target": "PIP4K", "DRSC id": "DRSC17213", "mean viability with MMS": 3.71e6, "viability with MMS, replicate 1": 4.18e6}
{"target": "Cht2", "DRSC id": "DRSC08650", "mean viability with MMS": 3.57e6, "viability with MMS, replicate 1": 3.95e6}
{"target": "rpk", "DRSC id": "DRSC12386", "mean viability with MMS": 3.50e6, "viability with MMS, replicate 1": 4.00e6}
{"target": "rpk", "DRSC id": "DRSC21656", "mean viability with MMS": 3.43e6, "viability with MMS, replicate 1": 3.98e6}
{"target": "Bbd", "DRSC id": "DRSC06709", "mean viability with MMS": 3.45e6, "viability with MMS, replicate 1": 3.97e6}

Looked up above.
Cht2 [DRSC08650], viability with MMS, replicate 1: 3.95e6
Under “viability with MMS, replicate 1”, PIP4K [DRSC17213] shows 4.18e6

More reagents:
{"target": "Rat1", "DRSC id": "DRSC02044", "mean viability with MMS": 3.44e6, "viability with MMS, replicate 1": 3.90e6}
{"target": "CG33500", "DRSC id": "DRSC09115", "mean viability with MMS": 3.55e6, "viability with MMS, replicate 1": 4.09e6}
{"target": "atilla", "DRSC id": "DRSC02971", "mean viability with MMS": 3.71e6, "viability with MMS, replicate 1": 4.22e6}
{"target": "Nt5b", "DRSC id": "DRSC19976", "mean viability with MMS": 3.81e6, "viability with MMS, replicate 1": 4.44e6}
{"target": "Nt5b", "DRSC id": "DRSC19977", "mean viability with MMS": 3.53e6, "viability with MMS, replicate 1": 3.92e6}
{"target": "Nt5b", "DRSC id": "DRSC19978", "mean viability with MMS": 3.49e6, "viability with MMS, replicate 1": 3.94e6}
{"target": "Nt5b", "DRSC id": "DRSC22588", "mean viability with MMS": 3.74e6, "viability with MMS, replicate 1": 4.27e6}
{"target": "PolE4", "DRSC id": "DRSC04105", "mean viability with MMS": 3.52e6, "viability with MMS, replicate 1": 3.99e6}
{"target": "Gpb5", "DRSC id": "DRSC21241", "mean viability with MMS": 3.59e6, "viability with MMS, replicate 1": 3.97e6}
